{"sequences": {"note": "Chains of the proteins cited; added tags and fusions are not shown. Lines headed by an entry give the natural chain unless they say otherwise; changes in a name come on top.", "UniProt P08491": "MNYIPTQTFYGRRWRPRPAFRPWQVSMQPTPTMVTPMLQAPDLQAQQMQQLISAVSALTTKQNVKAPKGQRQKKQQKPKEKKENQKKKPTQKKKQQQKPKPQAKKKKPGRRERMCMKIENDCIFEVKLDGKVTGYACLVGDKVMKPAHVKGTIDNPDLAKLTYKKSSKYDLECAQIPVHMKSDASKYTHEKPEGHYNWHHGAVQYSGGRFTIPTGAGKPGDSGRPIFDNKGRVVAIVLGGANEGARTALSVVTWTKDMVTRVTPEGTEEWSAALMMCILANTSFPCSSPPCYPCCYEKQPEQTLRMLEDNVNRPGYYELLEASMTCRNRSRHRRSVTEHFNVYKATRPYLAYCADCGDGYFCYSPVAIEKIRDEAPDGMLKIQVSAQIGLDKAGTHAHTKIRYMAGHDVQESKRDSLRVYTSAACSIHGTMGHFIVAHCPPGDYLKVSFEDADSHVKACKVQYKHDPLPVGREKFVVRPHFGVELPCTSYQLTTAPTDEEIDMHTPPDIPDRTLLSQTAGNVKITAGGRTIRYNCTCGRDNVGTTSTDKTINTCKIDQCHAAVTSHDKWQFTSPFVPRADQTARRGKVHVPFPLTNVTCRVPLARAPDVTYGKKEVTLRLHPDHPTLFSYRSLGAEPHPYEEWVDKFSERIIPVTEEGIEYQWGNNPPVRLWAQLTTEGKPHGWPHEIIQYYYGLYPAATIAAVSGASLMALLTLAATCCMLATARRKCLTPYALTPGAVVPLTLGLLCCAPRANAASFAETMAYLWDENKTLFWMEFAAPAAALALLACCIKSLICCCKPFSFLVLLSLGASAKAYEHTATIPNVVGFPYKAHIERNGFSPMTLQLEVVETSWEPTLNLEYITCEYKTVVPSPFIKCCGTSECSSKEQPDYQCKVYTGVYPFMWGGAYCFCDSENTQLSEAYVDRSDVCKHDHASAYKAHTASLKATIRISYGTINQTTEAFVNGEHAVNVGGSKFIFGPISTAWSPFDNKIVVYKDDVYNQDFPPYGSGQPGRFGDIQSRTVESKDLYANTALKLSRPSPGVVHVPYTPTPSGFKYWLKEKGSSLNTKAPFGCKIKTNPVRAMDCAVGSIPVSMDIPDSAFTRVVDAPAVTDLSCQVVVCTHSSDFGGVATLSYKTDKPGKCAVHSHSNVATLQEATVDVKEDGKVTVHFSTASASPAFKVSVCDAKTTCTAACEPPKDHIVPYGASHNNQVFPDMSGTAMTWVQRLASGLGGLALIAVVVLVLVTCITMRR"}, "source": "patent US20240124553A1", "binders": {"B1": {"name": "Mxra8-Fc (extracellular domain of mouse Mxra8 fused to mouse IgG2b Fc) (Fc fusion)", "chain": "SGPSGTAAASSSLVSESVVSLAAGTQAVLRCQSPRMVWTQDRLHDRQRVVHWDLSGGPGSQRRRLVDMYSAGEQRVYEPRDRDRLLLSPSAFHDGNFSLLIRAVDRGDEGVYTCNLHHHYCHLDESLAVRLEVTEDPLLSRAYWDGEKEVLVVAHGAPALMTCINRAHVWTDRHLEEAQQVVHWDRQLPGVSHDRADRLLDLYASGERRAYGPPFLRDRVSVNTNAFARGDFSLRIDELERADEGIYSCHLHHHYCGLHERRVFHLQVTEPAFEPPARASPGNGSGHSSAPSPDPTLTRGHSIINVIVPEDHTHPSGPISTINPCPPCKECHKCPAPNLEGGPSVFIFPPNIKDVLMISLTPKVTCVVVDVSEDDPDVQISWFVNNVEVHTAQTQTHREDYNSTIRVVSTLPIQHQDWMSGKEFKCKVNNKDLPSPIERTISKIKGLVRAPQVYILPPPAEQLSRKDVSLTCLVVGFNPGDISVEWTSNGHTEENYKDTAPVLDSDGSYFIYSKLNMKTSKWEKTDSFSCNVRHEGLKNYYLKKTISRSPGK"}}, "key": {"[1]": {"target": "Ross River virus (RRV, T48) structural proteins on infected cells (Ross River virus) (UniProt P08491)", "experiment": "flow cytometry on infected 3T3 cells, 1 µg/ml"}, "[2]": {"target": "Ross River virus (RRV, T48) structural proteins on infected cells (Ross River virus) (UniProt P08491)", "experiment": "flow cytometry of infected 3T3 cells, 1 µg/ml protein, anti-mouse IgG Alexa Fluor 647"}}, "note": "Results are given in words; binding and its absence hold for the method and conditions named. Some results given as binding are weak or reduced against the parent protein; the word gives no strength. Where a sequence is shown, tags or fusion partners need not be part of it.", "data": [{"binder": "B1", "values": [{"measurement": "binding", "setting": "[1]", "result": "binds"}, {"measurement": "binding", "setting": "[2]", "result": "binds"}]}]}
